Assay results published in US7351843B2, “Furancarbonylguanidine derivatives, their preparation and pharmaceutical compositions containing them” (Korea Research Institute of Chemical Technology, priority 2003, dated 2008).
Entries after “also recorded” stand apart in the source; their conditions may differ. A number of entries come with more than one value. This is not the full list of results. There may be further records. The values listed for one entry differ for a reason that is not stated; some may be repeats, others may stem from another dose, organism or construct than stated.

Tested on: ischemic rat heart
Assay: Cardioprotective effect on in vivo ischemic rat heart model (LAD occlusion 45 min / reperfusion 90 min, infarct size)
Details: anesthetized rats

| Structure (SMILES) | Myocardial infarction rate (IS/AAR) (0.1 mg/Kg i.v.) | Myocardial infarction rate (IS/AAR) (0.3 mg/kg i.v.) | Myocardial infarction rate (IS/AAR) (1.0 mg/kg i.v.) | Myocardial infarction rate (IS/AAR) (3.0 mg/kg i.v.) |
| --- | --- | --- | --- | --- |
| COc1ccc(F)cc1-c1ccc(C(=O)N=C(N)N)o1 | significant myocardial infration limiting effect; also recorded: 42.7% | – | – | – |
| COc1ccc(Cl)cc1-c1ccc(C(=O)NC(=N)N)o1 | 35.4%; also recorded: significant myocardial infration limiting effect | – | – | – |
| Cc1ccc(F)cc1-c1ccc(C(=O)NC(=N)N)o1 | significant myocardial infration limiting effect; also recorded: 43.3% | – | – | – |
| Cc1cc(C)cc(-c2ccc(C(=O)N=C(N)N)o2)c1 | 28.4%; also recorded: significant myocardial infration limiting effect | – | – | – |
| N=C(N)NC(=O)c1ccc(-c2cccc(F)c2)o1 | – | better than cariporide and 37.6% | better than cariporide and 31.8% | better than cariporide and 25.7% |
